Library screen at single concentrations

Amino acid sequences for entries named in this document (tags omitted). Residues count along the entry.
UniProt P9WPC5, whole entry: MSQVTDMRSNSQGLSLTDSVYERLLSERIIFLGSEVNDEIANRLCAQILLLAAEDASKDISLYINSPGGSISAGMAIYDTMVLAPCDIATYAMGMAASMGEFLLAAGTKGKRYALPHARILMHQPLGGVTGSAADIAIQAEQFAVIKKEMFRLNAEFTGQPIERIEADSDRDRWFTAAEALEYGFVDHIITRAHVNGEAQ
UniProt P9WPC3, whole entry partner: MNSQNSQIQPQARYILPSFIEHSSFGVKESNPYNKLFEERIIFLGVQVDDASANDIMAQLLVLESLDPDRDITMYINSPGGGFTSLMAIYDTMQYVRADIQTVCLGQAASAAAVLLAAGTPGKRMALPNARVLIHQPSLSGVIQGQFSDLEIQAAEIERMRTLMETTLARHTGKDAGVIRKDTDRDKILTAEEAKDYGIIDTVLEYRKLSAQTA
UniProt Q4DA54, 1-478: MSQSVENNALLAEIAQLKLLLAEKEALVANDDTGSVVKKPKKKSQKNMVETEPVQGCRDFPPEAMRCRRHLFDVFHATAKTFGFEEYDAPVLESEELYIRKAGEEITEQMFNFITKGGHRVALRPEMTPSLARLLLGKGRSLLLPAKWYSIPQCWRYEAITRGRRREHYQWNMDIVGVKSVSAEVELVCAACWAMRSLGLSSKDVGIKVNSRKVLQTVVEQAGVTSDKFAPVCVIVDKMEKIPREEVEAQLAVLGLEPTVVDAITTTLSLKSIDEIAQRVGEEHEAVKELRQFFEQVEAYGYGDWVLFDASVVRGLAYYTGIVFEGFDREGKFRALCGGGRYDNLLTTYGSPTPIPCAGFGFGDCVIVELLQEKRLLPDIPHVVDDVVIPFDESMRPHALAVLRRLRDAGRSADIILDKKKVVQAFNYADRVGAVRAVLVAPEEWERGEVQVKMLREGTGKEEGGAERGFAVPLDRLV
UniProt P9WNZ1, whole entry: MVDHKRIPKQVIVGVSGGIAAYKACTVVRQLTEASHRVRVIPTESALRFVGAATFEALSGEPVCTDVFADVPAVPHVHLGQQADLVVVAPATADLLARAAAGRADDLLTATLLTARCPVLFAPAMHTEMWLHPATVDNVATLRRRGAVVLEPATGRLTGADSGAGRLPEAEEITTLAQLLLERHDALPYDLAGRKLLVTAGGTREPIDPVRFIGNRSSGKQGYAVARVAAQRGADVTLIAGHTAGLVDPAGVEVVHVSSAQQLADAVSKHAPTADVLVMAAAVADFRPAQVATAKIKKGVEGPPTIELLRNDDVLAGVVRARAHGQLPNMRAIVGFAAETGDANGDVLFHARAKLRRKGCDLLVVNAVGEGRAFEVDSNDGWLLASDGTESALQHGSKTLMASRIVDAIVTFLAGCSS

Data taken from ChEMBL document CHEMBL3988442, “University of Dundee, Small-Polar-MMV Screening Library” (2021).

ClpP1P2: 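Protease assay of ClpP1P2, read by the AMC dye that it sets free. Target: ClpP1P2, Mycobacterium tuberculosis (UniProt P9WPC5 and UniProt P9WPC3). Compounds at 50 µM. Higher reads as stronger inhibition, judged from the few compounds that gave an IC50. Most other retested compounds had strongly negative values. About 69,000 compounds were tested under these conditions; 0.015% (about 10) showed 50% or more at least once.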
Toxoplasma: 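Assay of Toxoplasma gondii numbers, read through their beta-galactosidase reporter with a colour substrate. Concentration: 10 µM. Higher reads as fewer parasites (inferred from which compounds were picked for retests). About 67,000 compounds were tested under these conditions; 0.38% (about 260) showed 50% or more at least once.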
Leishmania in macrophages: 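Cell assay of Leishmania donovani living inside macrophages; the read-out is not stated. Compounds at 30 µM. Direction is inferred from retests: higher values go with stronger inhibition. About 69,000 compounds were tested under these conditions; 1.5% (about 1,000) showed 50% or more at least once.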
TcHisRS: 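Enzyme assay of histidyl-tRNA synthetase; the read-out is not stated. Target: Histidine-tRNA ligase, Trypanosoma cruzi CL Brener (UniProt Q4DA54). Concentration: 30 µM. Higher reads as stronger inhibition (inferred: compounds with an IC50 in retests scored well above the rest). Of about 69,000 compounds tested this way, about 31 (0.045%) reached 50% or more in at least one test.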
CoaBC: 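Enzyme assay of CoaBC with a phosphate dye (Biomol Green) read at 650 nm. Target: Coenzyme A biosynthesis protein CoaBC, Mycobacterium tuberculosis (UniProt P9WNZ1). Tested at 30 µM. Direction is inferred from only a few compounds that gave an IC50; most scored high, so higher reads as stronger inhibition. Most strong results did not repeat in a second test. Size under these conditions: about 67,000 compounds, about 40 of them at 50% or above in at least one test.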

Results are given as percent effect. The record does not define 0% and 100%; most values in the screen are far below 50% and negative numbers occur (in some assays of this library far below -100). Compounds were drawn at random from those tested, without regard to their results. A dash means the value is not listed here; it may have been measured.

For Cc1cccc(OCCN2CCC(c3ccnn3CCO)CC2)c1 the result was ClpP1P2: -1.653%; Toxoplasma: 2.854%; Leishmania in macrophages: 45.92%; TcHisRS: 6.936%; CoaBC: 2.738%. O=S1(=O)CCC(c2nc(-c3cccc(Br)c3)no2)C1 (stereo unspecified) read ClpP1P2: 2.262%; Toxoplasma: 2.655%; Leishmania in macrophages: 2.793%; TcHisRS: 2.02%; CoaBC: 4.862%. For Cn1cc(C[C@H]2[C@H](N3CCOCC3)CCN2C2CCOCC2)cn1 the result was ClpP1P2: -0.7513%; TcHisRS: 5.747%; CoaBC: 14.05%. With Cc1ccccc1-n1ncc(C(=O)N2CCCC2c2cnn(C)c2)c1C (stereo unspecified) the screen gave ClpP1P2: 13.94%; Toxoplasma: 3.662%; Leishmania in macrophages: 30.16%; TcHisRS: -0.3831%; CoaBC: 11.47%. For CC(C)NC(=O)C1CN(C(=O)c2cccs2)CC12CCOCC2 (stereo unspecified) the result was ClpP1P2: -10.13%; Toxoplasma: -1.478%; Leishmania in macrophages: 12.16%; TcHisRS: 5.473%; CoaBC: 6.774%. Cc1nc(C(=O)N2CCN(C(=O)N(C)C)[C@@H]3CS(=O)(=O)C[C@@H]32)cs1 gave ClpP1P2: -4.762%; TcHisRS: -0.5435%; CoaBC: 6.612%. O=C(NCc1csc(Br)c1)c1ccc(=O)[nH]n1 gave ClpP1P2: -1.185%; Toxoplasma: -2.531%; Leishmania in macrophages: 4.355%; TcHisRS: 4.887%; CoaBC: 3.394%. With c1csc(-c2nc(CNCCn3cccn3)cs2)c1 the screen gave ClpP1P2: -9.217%; Toxoplasma: 8.009%; Leishmania in macrophages: -6.889%; TcHisRS: 5.263%; CoaBC: 6.888%.

For CCC(=O)Nc1nnc(CCOc2ccccc2OC)s1 the result was ClpP1P2: -0.6128%; Toxoplasma: 1.414%; Leishmania in macrophages: 48.11%; TcHisRS: 3.478%; CoaBC: -0.6928%. CCCn1ccnc1CN1C[C@@H](NC(C)=O)[C@H](c2ccc(OC)cc2)C1 read ClpP1P2: -3.783%; Toxoplasma: 5.42%; Leishmania in macrophages: 11.4%; TcHisRS: 0.6494%; CoaBC: 1.33%. Cc1nnc(NCc2cccc(OCC3CCCO3)c2)c(C#N)c1C (stereo unspecified) read ClpP1P2: 0.06439%; Toxoplasma: 91.1%; Leishmania in macrophages: -2.092%; TcHisRS: 14%; CoaBC: 4.116%. Result for CSc1ncc(CNC(C)c2cnn(-c3ccccc3)c2C)cn1 (stereo unspecified) was ClpP1P2: -28.74%; Toxoplasma: 8.265%; Leishmania in macrophages: 2.733%; TcHisRS: -2.899%; CoaBC: 3.106%. CCNC(=O)[C@@H]1CCCN1[C@@H](C(=O)NC)c1ccccc1OC read ClpP1P2: -12.59%; TcHisRS: 6.468%; CoaBC: 1.935%. With Cc1nc(-c2cccc(Cl)c2)n(CC(=O)NCC2CCCO2)c(=O)c1C (stereo unspecified) the screen gave ClpP1P2: -8.313%; Toxoplasma: 21.41%; Leishmania in macrophages: 28.06%; TcHisRS: -0.8772%; CoaBC: 6.774%. Result for Cc1nnc([C@@H]2CC[C@@H]3[C@@H](CCN3C3CCOCC3)O2)o1 was ClpP1P2: -1.144%; TcHisRS: -2.299%; CoaBC: 3.462%. Cc1ccc(-c2nnc(CN3CCCCC3Cn3cncn3)o2)cc1 (stereo unspecified) read ClpP1P2: -4.275%; Toxoplasma: 0.8726%; Leishmania in macrophages: 21.92%; TcHisRS: 12%; CoaBC: 1.912%.

With c1cn(-c2ccc(CN3CCOC(Cn4cncn4)C3)cc2)cn1 (stereo unspecified) the screen gave ClpP1P2: -16.24%; Toxoplasma: 14.12%; Leishmania in macrophages: 21.85%; TcHisRS: 4%; CoaBC: -0.7874%. With CC(C)=CCN1CCN(Cc2nccn2C)C(C)C1 (stereo unspecified) the screen gave ClpP1P2: -28.36%; Toxoplasma: -13.12%; Leishmania in macrophages: 24.95%; TcHisRS: 6.122%; CoaBC: 1.37%. c1cnc(N2CCN3C[C@H](Oc4cncnc4)C[C@H]3C2)nc1 gave ClpP1P2: -16.38%; TcHisRS: 3.911%; CoaBC: 1.576%. With CCc1nnc(CN2CCCC(Cn3nc(C)nc3C)C2)o1 (stereo unspecified) the screen gave ClpP1P2: 0.5877%; Toxoplasma: -3.605%; Leishmania in macrophages: 14.34%; TcHisRS: 3.333%; CoaBC: 9.091%. With COCC1CC2(CCN(C(=O)C3CCSCC3)CC2)CO1 (stereo unspecified) the screen gave ClpP1P2: 0.6983%; Toxoplasma: 5.036%; Leishmania in macrophages: -17.04%; TcHisRS: 3.743%; CoaBC: 0.8333%. Result for Cc1nnc(N2C[C@H](OCC3CCCC3)[C@H]3OCCC[C@H]32)s1 was ClpP1P2: -6.094%; TcHisRS: 3.483%; CoaBC: 13.56%. With Cc1ncccc1O[C@H]1CCN(C(=O)Cc2cccs2)CC[C@@H]1O the screen gave ClpP1P2: -1.087%; Toxoplasma: -1.567%; Leishmania in macrophages: 6.834%; TcHisRS: -4.301%; CoaBC: 6.152%. CNC(=O)[C@@H]1CN(C(=O)CCOC)C[C@H]1c1ccnc(N2CCCC2)n1.Cl read Toxoplasma: -15.71%; Leishmania in macrophages: 35.33%.

CN1CCc2nc3c(c(N)c2C1)CCCN3C gave ClpP1P2: 4.919%; Toxoplasma: -5.295%; Leishmania in macrophages: 34.53%; TcHisRS: 7.921%; CoaBC: 3.155%. CCCC1COCCN1Cc1ccc(C(=O)O)cc1 (stereo unspecified) read ClpP1P2: -3.566%; Toxoplasma: 0.3446%; Leishmania in macrophages: 8.77%; TcHisRS: -3.704%; CoaBC: 9.742%.

The last 3 entries again:

structure	ClpP1P2	Toxoplasma	Leishmania in macrophages	TcHisRS	CoaBC
CNC(=O)[C@@H]1CN(C(=O)CCOC)C[C@H]1c1ccnc(N2CCCC2)n1.Cl	-	-15.71	35.33	-	-
CN1CCc2nc3c(c(N)c2C1)CCCN3C	4.919	-5.295	34.53	7.921	3.155
CCCC1COCCN1Cc1ccc(C(=O)O)cc1 (stereo unspecified)	-3.566	0.3446	8.77	-3.704	9.742